Results are given in words; binding and its absence hold for the method and conditions named. Binding seen in cells or lysates may run through a third protein. Here binding means that the protein was enriched with, or labelled near, the bait; the list need not be complete. Where a sequence is shown, tags or fusion partners need not be part of it. Values belong to the binder of their own block, whether it stands above or below them.
Target: T1, GFP-AGO1 (ARGONAUTE1, Arabidopsis thaliana) (Arabidopsis thaliana) (UniProt O04379)
T1 sequence: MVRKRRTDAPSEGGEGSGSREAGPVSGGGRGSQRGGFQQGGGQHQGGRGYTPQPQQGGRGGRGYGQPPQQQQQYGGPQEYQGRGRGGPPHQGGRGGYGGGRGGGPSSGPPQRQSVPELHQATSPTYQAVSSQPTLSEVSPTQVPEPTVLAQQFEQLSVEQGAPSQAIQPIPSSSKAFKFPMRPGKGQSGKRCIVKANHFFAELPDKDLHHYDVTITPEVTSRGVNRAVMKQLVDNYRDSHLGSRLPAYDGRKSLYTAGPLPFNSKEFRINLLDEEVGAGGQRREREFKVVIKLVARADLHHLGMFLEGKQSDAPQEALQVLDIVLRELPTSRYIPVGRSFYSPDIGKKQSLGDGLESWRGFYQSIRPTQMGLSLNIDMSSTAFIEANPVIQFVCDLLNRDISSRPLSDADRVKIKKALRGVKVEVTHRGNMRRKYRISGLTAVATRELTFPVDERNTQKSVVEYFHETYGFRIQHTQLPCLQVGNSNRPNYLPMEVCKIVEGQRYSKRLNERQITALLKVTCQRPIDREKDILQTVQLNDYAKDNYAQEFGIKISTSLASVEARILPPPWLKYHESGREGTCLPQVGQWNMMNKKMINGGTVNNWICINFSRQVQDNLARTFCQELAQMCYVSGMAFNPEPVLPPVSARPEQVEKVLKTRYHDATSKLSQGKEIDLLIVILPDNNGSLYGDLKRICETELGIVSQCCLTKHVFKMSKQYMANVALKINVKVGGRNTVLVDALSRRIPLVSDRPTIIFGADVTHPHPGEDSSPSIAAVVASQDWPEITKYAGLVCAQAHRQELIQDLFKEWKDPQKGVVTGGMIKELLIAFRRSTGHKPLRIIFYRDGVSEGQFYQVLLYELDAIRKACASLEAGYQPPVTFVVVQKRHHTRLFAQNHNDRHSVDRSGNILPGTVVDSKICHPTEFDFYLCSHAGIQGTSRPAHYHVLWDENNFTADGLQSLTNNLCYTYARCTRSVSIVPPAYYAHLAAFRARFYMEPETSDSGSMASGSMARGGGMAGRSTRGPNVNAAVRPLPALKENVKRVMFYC
Test: affinity purification with mass spectrometry; GFP-AGO1 immunoprecipitated with magnetic microbeads coupled to GFP antibodies (μMACS GFP Isolation Kit) from 7-day-old pAGO1:GFP-AGO1 ago1-27 seedlings after 1 h HS at 37°C; lysis buffer 50mM Tris-HCl pH7,5, 50mM NaCl, 0,25% IGEPAL CA-630, 2mM MgCl2, 5mM DTT; control IPs in Col-0 and the p35S:GFP-3Flag line; nanoLC-MS/MS

- binding: binds
B1: RH12 (protein, UniProt Q9M2E0 1-498)
chain: MNTNRGRYPPGVGTGRGAPPNPDYHQSYRQQQPPQDQQYVQRGYSQNPQQMQLQQQHQQQQQQQQWSRRPQLPGNASNANEVVQQTTQPEASSDANGQDWKATLRLPPPDTRYQTADVTATKGNEFEDYFLKRDLLKGIYEKGFEKPSPIQEESIPIALTGSDILARAKNGTGKTGAFCIPVLEKIDPNNNVIQAMILVPTRELALQTSQVCKELSKYLNIQVMVTTGGTSLRDDIMRLHQPVHLLVGTPGRILDLTKKGVCVLKDCAMLVMDEADKLLSAEFQPSLEELIQFLPQNRQFLMFSATFPVTVKAFKDRHLRKPYVINLMDQLTLMGVTQYYAFVEERQKVHCLNTLFSKLQINQSIIFCNSVNRVELLAKKITELGYSCFYIHAKMVQDHRNRVFHEFRNGACRNLVCTDLFTRGIDIQAVNVVINFDFPRTSESYLHRVGRSGRFGHLGLAVNLVTYEDRFKMYQTEQELGTEIKPIPSNIDQAIYCQ

- binding: binds
B2: AGO5 (protein, UniProt Q9SJK3 1-997)
chain: MSNRGGGGHGGASRGRGGGRRSDQRQDQSSGQVAWPGLQQSYGGRGGSVSAGRGRGNVGRGENTGDLTATQVPVASAVSGGRGRGNIGDPTFSVASSSKTVSVASSSKEESKNTEVSETMSNLQITSTETKPEMTSLPPASSKAVTFPVRPGRGTLGKKVMVRANHFLVQVADRDLYHYDVSINPEVISKTVNRNVMKLLVKNYKDSHLGGKSPAYDGRKSLYTAGPLPFDSKEFVVNLAEKRADGSSGKDRPFKVAVKNVTSTDLYQLQQFLDRKQREAPYDTIQVLDVVLRDKPSNDYVSVGRSFFHTSLGKDARDGRGELGDGIEYWRGYFQSLRLTQMGLSLNIDVSARSFYEPIVVTDFISKFLNIRDLNRPLRDSDRLKVKKVLRTLKVKLLHWNGTKSAKISGISSLPIRELRFTLEDKSEKTVVQYFAEKYNYRVKYQALPAIQTGSDTRPVYLPMELCQIDEGQRYTKRLNEKQVTALLKATCQRPPDRENSIKNLVVKNNYNDDLSKEFGMSVTTQLASIEARVLPPPMLKYHDSGKEKMVNPRLGQWNMIDKKMVNGAKVTSWTCVSFSTRIDRGLPQEFCKQLIGMCVSKGMEFKPQPAIPFISCPPEHIEEALLDIHKRAPGLQLLIVILPDVTGSYGKIKRICETELGIVSQCCQPRQVNKLNKQYMENVALKINVKTGGRNTVLNDAIRRNIPLITDRPTIIMGADVTHPQPGEDSSPSIAAVVASMDWPEINKYRGLVSAQAHREEIIQDLYKLVQDPQRGLVHSGLIREHFIAFRRATGQIPQRIIFYRDGVSEGQFSQVLLHEMTAIRKACNSLQENYVPRVTFVIVQKRHHTRLFPEQHGNRDMTDKSGNIQPGTVVDTKICHPNEFDFYLNSHAGIQGTSRPAHYHVLLDENGFTADQLQMLTNNLCYTYARCTKSVSIVPPAYYAHLAAFRARYYMESEMSDGGSSRSRSSTTGVGQVISQLPAIKDNVKEVMFYC

- binding: binds
B3: RNA-binding protein 47C (RBP47C) (protein, UniProt Q9SX79 1-432)
chain: MADVKIQSESESSDSHPVVDNQPPPPPPPPQQPAKEEENQPKTSPTPPPHWMRYPPTVIIPHQMMYAPPPFPPYHQYPNHHHLHHQSRGNKHQNAFNGENKTIWVGDLHHWMDEAYLNSSFASGDEREIVSVKVIRNKNNGLSEGYGFVEFESHDVADKVLREFNGTTMPNTDQPFRLNWASFSTGEKRLENNGPDLSIFVGDLSPDVSDNLLHETFSEKYPSVKAAKVVLDANTGRSKGYGFVRFGDENERTKAMTEMNGVKCSSRAMRIGPATPRKTNGYQQQGGYMPNGTLTRPEGDIMNTTIFVGGLDSSVTDEDLKQPFNEFGEIVSVKIPVGKGCGFVQFVNRPNAEEALEKLNGTVIGKQTVRLSWGRNPANKQPRDKYGNQWVDPYYGGQFYNGYGYMVPQPDPRMYPAAPYYPMYGGHQQQVS

- binding: binds
B4: RNA helicase RH6 (protein, UniProt Q94BV4 1-528)
chain: MNNNNNNRGRFPPGIGAAGPGPDPNFQSRNPNPPQPQQYLQSRTPFPQQPQPQPPQYLQSQSDAQQYVQRGYPQQIQQQQQLQQQQQQQQQQQEQQWSRRAQLPGDPSYIDEVEKTVQSEAISDSNNEDWKATLKLPPRDNRYQTEDVTATKGNEFEDYFLKRDLLRGIYEKGFEKPSPIQEESIPIALTGSDILARAKNGTGKTGAFCIPTLEKIDPENNVIQAVILVPTRELALQTSQVCKELSKYLKIEVMVTTGGTSLRDDIMRLYQPVHLLVGTPGRILDLAKKGVCVLKDCAMLVMDEADKLLSVEFQPSIEELIQFLPESRQILMFSATFPVTVKSFKDRYLKKPYIINLMDQLTLMGVTQYYAFVEERQKVHCLNTLFSKLQINQSIIFCNSVNRVELLAKKITELGYSCFYIHAKMVQDHRNRVFHDFRNGACRNLVCTDLFTRGIDIQAVNVVINFDFPRTSESYLHRVGRSGRFGHLGLAVNLVTYEDRFKMYQTEQELGTEIKPIPSLIDKAIYCQ

- binding: binds
B5: RNA-binding protein 47A (RBP47A) (protein, UniProt F4I3B3 1-445)
chain: MQTPNNNGSTDSVLPPTSAGTTPPPPLQQSTPPPQQQQQQQWQQQQQWMAAMQQYPAAAMAMMQQQQMMMYPHPQYAPYNQAAYQQHPQFQYAAYQQQQQQHHQSQQQPRGGSGGDDVKTLWVGDLLHWMDETYLHTCFSHTNEVSSVKVIRNKQTCQSEGYGFVEFLSRSAAEEALQSFSGVTMPNAEQPFRLNWASFSTGEKRASENGPDLSIFVGDLAPDVSDAVLLETFAGRYPSVKGAKVVIDSNTGRSKGYGFVRFGDENERSRAMTEMNGAFCSSRQMRVGIATPKRAAAYGQQNGSQALTLAGGHGGNGSMSDGESNNSTIFVGGLDADVTEEDLMQPFSDFGEVVSVKIPVGKGCGFVQFANRQSAEEAIGNLNGTVIGKNTVRLSWGRSPNKQWRSDSGNQWNGGYSRGQGYNNGYANQDSNMYATAAAAVPGAS

- binding: binds
B6: RNA-binding protein 47B (RBP47B) (protein, UniProt Q0WW84 1-435)
chain: MQTTNGSDSTLATSGATPPNQQTPPPPQQWQQQQQQQQQWMAAMQYPPAAAMMMMQQQQMLMYPHQYVPYNQGPYQQHHPQLHQYGSYQQHQHQQHKAIDRGSGDDVKTLWVGDLLHWMDETYLHSCFSHTGEVSSVKVIRNKLTSQSEGYGFVEFLSRAAAEEVLQNYSGSVMPNSDQPFRINWASFSTGEKRAVENGPDLSVFVGDLSPDVTDVLLHETFSDRYPSVKSAKVVIDSNTGRSKGYGFVRFGDENERSRALTEMNGAYCSNRQMRVGIATPKRAIANQQQHSSQAVILAGGHGSNGSMGYGSQSDGESTNATIFVGGIDPDVIDEDLRQPFSQFGEVVSVKIPVGKGCGFVQFADRKSAEDAIESLNGTVIGKNTVRLSWGRSPNKQWRGDSGQQWNGGYSRGHGYNNGGGYANHHDSNNYHGEN

- binding: binds
B7: PAB8 (protein, UniProt Q9FXA2 1-671)
chain: MAQIQHQGQNANGGVAVPGAAAAEAAAAAAGAAAAAAGAAQQGTTSLYVGDLDATVTDSQLFEAFTQAGQVVSVRVCRDMTTRRSLGYGYVNYATPQDASRALNELNFMALNGRAIRVMYSVRDPSLRKSGVGNIFIKNLDKSIDHKALHETFSAFGPILSCKVAVDPSGQSKGYGFVQYDTDEAAQGAIDKLNGMLLNDKQVYVGPFVHKLQRDPSGEKVKFTNVYVKNLSESLSDEELNKVFGEFGVTTSCVIMRDGEGKSKGFGFVNFENSDDAARAVDALNGKTFDDKEWFVGKAQKKSERETELKQKFEQSLKEAADKSQGSNLYVKNLDESVTDDKLREHFAPFGTITSCKVMRDPSGVSRGSGFVAFSTPEEATRAITEMNGKMIVTKPLYVALAQRKEDRKARLQAQFSQMRPVNMPPAVGPRMQMYPPGGPPMGQQLFYGQGPPAMIPQPGFGYQQQLVPGMRPGGSPMPNFFMPMMQQGQQQQQQQQQQQRPGGGRRGALPQPQQPSPMMQQQMHPRGRMYRYPQRDVNTMPGPTQNMLSVPYDVSSGGGVHHRDSPTSQPVPIVALATRLANAAPEQQRTMLGENLYPLVEQLEPESAAKVTGMLLEMDQTEVLHLLESPEALKAKVTEAMDVLRSVAQQQAGGAADQLASLSLGDNIVP

- binding: binds
B8: LARP1a (protein, UniProt Q940X9 1-826)
chain: MMAETEGSVADDRELITREGGIGTKSPWKTTTSPVETIDAPVMGAHSWPALADAAQQPRPKNPPAPAPAPPSKNIPTSIPIPTPAVTGQAKSKGGGKANPGHKNPSGRHSKPGPRSNQNGPPPPPYLVHAVPYHPPPFPPMVPLPHAAGPDFPYAPYPPYPVPVPPVTESGNEKQVQASPLPPVLPAPQGDPGKPWPHQRGFDPRNMPQGAGPRNFGRPPFMGPAPGFLVGPGPGFPGPVYYLPGPPPGAIRGPYPPRFAPYPVNQGPPILSPEKLDLRDRVLKQVEYYFSDENLENDHYLISLMDEEGWVPTKIIAGFKRVKAMTMDVDFIVYALGFSNSVEVQGDQIRKRDKWSDWIPASKKSTSAETIGDGDKDSPKSITSGDNFGNPSKGSSKPTVSDFSSEGAQSSRTNNYKSGNLKSSADEKRNVEDLSNDFSNTFLLDEELDLEHRSPRKSGLSMSKSIEYEDDDMAVDDQDIQKLVIVTQNSGKSDGAGIGGTEAKNIPKELASTINDGLYYFEQELKKKRSGRRKNNSHLDTKDGKIKSGEGLNTKLGENSAANDGGEEHGIITSRRKQNKGTHKHHTAHARRFFSSNIRNNGNISESPPSSSIGFFFGSTPPDSHGPRLSKLSSSPQCTLSGSSPPVGSLPKSFPPFQHPSHQLLEENGFKQEKYLKYRKRCLNERKKLGSGCSEEMNHLYRFWSYFLRDTFVLSMYDDFQKFALEDAAGNYDYGLECLFRFYSYGLEKHFDEDLYKDFEKLSLDFYHKGNLYGLEKYWAFHHYRGKEEPITKHPELEKLLKEEFRSIDDFRAKETITNQKENKSH
